These results are taken from PubChem BioAssay (NCATS).

The list shows a part of the results. Further columns of the screen follow, without active or inactive calls. Compounds called inactive in the main read-out are mostly missing here. Words in brackets tell the shape of the fitted curve; partial curves, single points and poor fits give uncertain potencies.

This assay can be described thus: NCATS anti-infectives library activity on the primary C. elegans qHTS viability assay (AID 1745855). The conditions noted are these: C. elegans worm area imaging. The procedure, abridged:
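Viability is taken from GFP fluorescence of PE254-GFP-FLuc C. elegans imaged by laser cytometry over 7 days. Ten L1 worms per well grow at 21 °C on TOP10 E. coli capsules with titrated compound; levamisole marks toxicity.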
A general note: qHTS replaces the single test concentration by a dilution series.

Setting [1] is: day 7, measured here: worm number, day 3.
The mark [2] stands for this setting: day 7, measured here: worm number.

`O=C1c2cccc(O)c2C(=O)c2c(O)cc(CO)cc21`: under setting [1], the AC50 is 728 nM [falling, full curve, poor fit].

Consider `Cc1nnc(C(C)C)n1C1CC2CCC(C1)N2CC[C@H](NC(=O)C1CCC(F)(F)CC1)c1ccccc1` (some centres undefined), for which the AC50 under setting [1] is 728 nM [falling, partial curve, poor fit].

Consider `O=C(Nc1ncc([N+](=O)[O-])s1)c1ccccc1O`, for which the AC50 (day 7, measured here: worm area, day 3) was 325 nM [falling, full curve, poor fit].

For the molecule `Cc1ccc(C2Nc3ccccc3C(=O)N2c2ccccc2)s1` (centres undefined), under setting [2], the half-maximal activity concentration (AC50) is 91.6 nM [falling, full curve, poor fit].

For `CC(C)(C)NC(=O)N[C@H](C(=O)N1C[C@H]2[C@@H]([C@H]1C(=O)NC(CC1CCC1)C(=O)C(N)=O)C2(C)C)C(C)(C)C` (some centres undefined), the AC50 under setting [1] is 29000 nM [rising, single point].

With `Nc1ccn([C@@H]2CS[C@H](CO)O2)c(=O)n1`, the AC50 under setting [1] was 36500 nM [falling, single point].

`COc1ccc(/C=C/C(=O)O)cc1O`: under setting [1], the AC50 was 3330 nM [rising, full curve, poor fit].

Regarding `CC1(C)O[C@H]2CC(=O)OC[C@]23[C@H]2CC[C@@]4(C)[C@H](c5ccoc5)OC(=O)[C@H]5O[C@]54[C@]2(C)C(=O)C[C@@H]13`, the AC50 under setting [1] is 7270 nM [falling, partial curve, poor fit].

As to `CC(C)=CCC/C(C)=C/CC/C(C)=C/CC/C(C)=C/CC/C(C)=C/CC/C(C)=C/CC/C(C)=C/CC/C(C)=C/CC/C(C)=C/CO`, the AC50 under setting [2] is 79.2 nM [falling, full curve, poor fit].

As a reminder, the AC50 is the concentration giving half of the maximal activity seen. Read a high AC50 as weaker potency.
